From the supplement of paper PMC8728848
The other results are listed elsewhere or left out.

Experiments:
Test in all cases: glycan array binding signal (z-score within array); higher = stronger binding
Settings in all cases: glycan notation: IUPAC condensed, linker removed
[1] = target: Neu5Ac(a2-3)Gal(b1-3)GlcNAc(b1-2)Man
How it was run: (§1)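 Columns mapping to the same glycan were averaged after glycan names were converted to IUPAC-condensed notation. The data come from 3228 arrays in the Consortium for Functional Glycomics database, limited to those with an available protein sequence. Binding is reported as a within-array Z-score averaged across arrays of one protein sequence and across linkers.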

[2] = target: Neu5Ac(a2-3)Gal(b1-3)GlcNAc(b1-2)Man(a1-3)[GlcNAc(b1-4)][Neu5Ac(a2-3)Gal(b1-3)GlcNAc(b1-2)Man(a1-6)]Man(b1-4)GlcNAc(b1-4)GlcNAc
How it was run: as §1

[3] = target: Neu5Ac(a2-3)Gal(b1-3)GlcNAc(b1-2)Man(a1-3)[Neu5Ac(a2-3)Gal(b1-3)GlcNAc(b1-2)Man(a1-6)]Man(b1-4)GlcNAc(b1-4)GlcNAc
How it was run: as §1

[4] = target: Neu5Ac(a2-3)Gal(b1-3)GlcNAc(b1-2)[Neu5Ac(a2-3)Gal(b1-3)GlcNAc(b1-4)]Man(a1-6)[Neu5Ac(a2-3)Gal(b1-3)GlcNAc(b1-2)Man(a1-3)]Man(b1-4)GlcNAc(b1-4)GlcNAc
How it was run: as §1

[5] = target: Neu5Ac(a2-3)Gal(b1-3)GlcNAc(b1-3)Gal(b1-3)GlcNAc
How it was run: as §1

[6] = target: Neu5Ac(a2-3)Gal(b1-3)GlcNAc(b1-3)Gal(b1-4)GlcNAc
How it was run: as §1

[7] = target: Neu5Ac(a2-3)Gal(b1-3)GlcNAc(b1-3)GalNAc
How it was run: as §1

[8] = target: Neu5Ac(a2-3)Gal(b1-3)GlcNAc(b1-6)GalNAc
How it was run: as §1

[9] = target: Neu5Ac(a2-3)Gal(b1-3)GlcNAc6S
How it was run: as §1

[10] = target: Neu5Ac(a2-3)Gal(b1-3)[Fuc(a1-4)]GlcNAc
How it was run: as §1

[11] = target: Neu5Ac(a2-3)Gal(b1-3)[Fuc(a1-4)]GlcNAc(b1-3)Gal(b1-3)[Fuc(a1-4)]GlcNAc
How it was run: as §1

[12] = target: Neu5Ac(a2-3)Gal(b1-3)[Fuc(a1-4)]GlcNAc(b1-3)Gal(b1-4)[Fuc(a1-3)]GlcNAc
How it was run: as §1

[13] = target: Neu5Ac(a2-3)Gal(b1-3)[GlcNAc(b1-6)]GalNAc
How it was run: as §1

[14] = target: Neu5Ac(a2-3)Gal(b1-3)[Neu5Ac(a2-6)]GalNAc
How it was run: as §1

[15] = target: Neu5Ac(a2-3)Gal(b1-3)[Neu5Ac(a2-6)]GlcNAc(b1-3)[Fuc(a1-3)[Gal(b1-4)]GlcNAc(b1-6)]Gal(b1-4)Glc
How it was run: as §1

[16] = target: Neu5Ac(a2-3)Gal(b1-3)]Neu5Ac(a2-3)Gal(b1-4)]GlcNAc
How it was run: as §1

Neu5Ac(a2-3)Gal(b1-4)Glc = target: Neu5Ac(a2-3)Gal(b1-4)Glc
How it was run: as §1

[17] = target: Neu5Ac(a2-3)Gal(b1-4)GlcNAc
How it was run: as §1

[18] = target: Neu5Ac(a2-3)Gal(b1-4)GlcNAc(b1-2)Man
How it was run: as §1

[19] = target: Neu5Ac(a2-3)Gal(b1-4)GlcNAc(b1-2)Man(a1-3)[GlcNAc(b1-4)][Neu5Ac(a2-3)Gal(b1-4)GlcNAc(b1-2)Man(a1-6)]Man(b1-4)GlcNAc(b1-4)GlcNAc
How it was run: as §1

[20] = target: Neu5Ac(a2-3)Gal(b1-4)GlcNAc(b1-2)Man(a1-3)[Neu5Ac(a2-3)Gal(b1-4)GlcNAc(b1-2)Man(a1-6)]Man(b1-4)GlcNAc(b1-4)GlcNAc
How it was run: as §1

[21] = target: Neu5Ac(a2-3)Gal(b1-4)GlcNAc(b1-2)Man(a1-3)[Neu5Ac(a2-3)Gal(b1-4)GlcNAc(b1-2)Man(a1-6)]Man(b1-4)GlcNAc(b1-4)[Fuc(a1-6)]GlcNAc
How it was run: as §1

[22] = target: Neu5Ac(a2-3)Gal(b1-4)GlcNAc(b1-2)Man(a1-3)[Neu5Ac(a2-6)Gal(b1-4)GlcNAc(b1-2)Man(a1-6)]Man(b1-4)GlcNAc(b1-4)GlcNAc
How it was run: as §1

B1: SJCP3842 (Schistosoma japonicum) (protein)
chain: MFKMRIINLVNISTVLLLINLLQTKSRLVGKENGFMLTVSIYGAQLSDKMTSVPVSWTIDYEDPEKSAFKKLVTDSCDTFSEYVKSQIPKGSVDGQCTSHIFQRPGSGSGVSISLTLSFIYVDVTQPDTVALKTELEKHFANFVTIHSHKITQAQFRINQKAIVIPTGDKDAIDGSKWKIIAIIALVALAIVVIGGFIYICVK
glycan array binding signal (z-score) [1]: 0.241 | glycan array binding signal (z-score) [2]: -1.16 | glycan array binding signal (z-score) [3]: 0.074 | glycan array binding signal (z-score) [4]: -0.565 | glycan array binding signal (z-score) [5]: -1.12 | glycan array binding signal (z-score) [6]: -1.77 | glycan array binding signal (z-score) [7]: -0.765 | glycan array binding signal (z-score) [8]: 1.36 | glycan array binding signal (z-score) [9]: 0.502 | glycan array binding signal (z-score) [10]: -0.038 | glycan array binding signal (z-score) [11]: 1.28 | glycan array binding signal (z-score) [12]: 1.81 | glycan array binding signal (z-score) [13]: 0.062 | glycan array binding signal (z-score) [14]: -0.204 | glycan array binding signal (z-score) [15]: 2.18 | glycan array binding signal (z-score) [16]: 0.022 | glycan array binding signal (z-score) (Neu5Ac(a2-3)Gal(b1-4)Glc): 0.467 | glycan array binding signal (z-score) [17]: 0.765 | glycan array binding signal (z-score) [18]: 1.67 | glycan array binding signal (z-score) [19]: -0.146 | glycan array binding signal (z-score) [20]: 0.312 | glycan array binding signal (z-score) [21]: -0.096 | glycan array binding signal (z-score) [22]: -1.42
